Experimental findings from publication doi:10.1101/679100 are described below.

Chains of the proteins cited; added tags and fusions are not shown.
UniProt Q8IB67: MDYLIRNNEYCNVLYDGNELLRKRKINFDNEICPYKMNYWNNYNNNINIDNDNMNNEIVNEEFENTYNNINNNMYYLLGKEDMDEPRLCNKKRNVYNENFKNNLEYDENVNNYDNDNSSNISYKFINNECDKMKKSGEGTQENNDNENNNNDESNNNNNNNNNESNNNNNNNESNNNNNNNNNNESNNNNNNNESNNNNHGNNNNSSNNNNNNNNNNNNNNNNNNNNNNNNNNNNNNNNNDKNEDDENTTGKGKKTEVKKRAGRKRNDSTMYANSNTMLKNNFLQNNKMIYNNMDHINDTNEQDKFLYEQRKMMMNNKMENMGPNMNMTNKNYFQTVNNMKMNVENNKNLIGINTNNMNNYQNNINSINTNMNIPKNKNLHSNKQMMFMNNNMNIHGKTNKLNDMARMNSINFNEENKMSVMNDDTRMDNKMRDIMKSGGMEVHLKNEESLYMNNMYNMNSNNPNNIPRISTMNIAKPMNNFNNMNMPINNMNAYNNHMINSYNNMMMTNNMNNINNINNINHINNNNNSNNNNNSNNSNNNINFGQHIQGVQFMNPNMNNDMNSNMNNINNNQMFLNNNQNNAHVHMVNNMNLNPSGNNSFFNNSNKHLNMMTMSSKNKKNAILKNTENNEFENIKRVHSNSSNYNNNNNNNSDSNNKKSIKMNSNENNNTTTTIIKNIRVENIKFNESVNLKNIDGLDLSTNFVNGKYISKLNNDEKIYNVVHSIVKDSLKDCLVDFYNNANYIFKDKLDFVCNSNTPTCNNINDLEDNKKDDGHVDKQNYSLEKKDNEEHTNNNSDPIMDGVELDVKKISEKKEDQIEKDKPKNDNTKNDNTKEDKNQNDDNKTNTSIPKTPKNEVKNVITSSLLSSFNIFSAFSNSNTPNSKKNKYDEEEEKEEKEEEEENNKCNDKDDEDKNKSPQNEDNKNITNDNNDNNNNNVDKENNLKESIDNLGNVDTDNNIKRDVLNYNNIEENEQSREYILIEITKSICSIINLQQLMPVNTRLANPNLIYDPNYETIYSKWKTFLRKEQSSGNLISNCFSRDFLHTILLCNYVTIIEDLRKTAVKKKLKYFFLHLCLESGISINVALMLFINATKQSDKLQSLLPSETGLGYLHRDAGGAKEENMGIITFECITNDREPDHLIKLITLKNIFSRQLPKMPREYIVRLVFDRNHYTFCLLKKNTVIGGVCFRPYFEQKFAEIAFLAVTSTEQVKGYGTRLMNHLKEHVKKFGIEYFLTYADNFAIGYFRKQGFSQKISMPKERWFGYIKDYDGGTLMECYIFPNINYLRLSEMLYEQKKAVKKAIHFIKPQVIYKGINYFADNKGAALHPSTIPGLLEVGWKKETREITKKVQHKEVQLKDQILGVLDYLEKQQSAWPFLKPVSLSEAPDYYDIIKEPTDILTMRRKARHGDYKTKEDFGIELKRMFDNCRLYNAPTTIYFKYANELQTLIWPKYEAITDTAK

No constants are given. Whether binding was seen depends on the method and setting. In cells and extracts the contact can be indirect. Some results given as binding are weak or reduced against the parent protein; the word gives no strength.

The experiment addresses PfGCN5 (P. falciparum (endogenous in strain 3D7 parasites)) (UniProt Q8IB67). As to the kind of experiment: co-IP.

B1: PfAlba3 (protein, UniProt Q8IJX8 1-107)
chain: MASTEEVSQERSENSIQVSMTKKPTFYARIGKRMFTGNEEKNPFDEVIITGLGNATKIAIGAASIMEKEDIGQIVKVQTAYFSSDRINRRIPKITIVLKKHPDFVAN
As to B1, the binding entry is “binds”.
